For at least one compound, name, drawing or mass did not settle the structure.
Assays:
Type in all cases: cell-based, human
PDAC cells [1] = test: Cell proliferation assay (crystal violet); conditions: 8988T cells expressing shGOT1, 4 mM supplement, FIG. 28
Description: Cells were plated in 24-well plates at 2,000 cells per well in 0.5 mL of media. To deprive Gln, cells were plated in complete culture medium (10 mM glucose and 2 mM Gln) which was exchanged with Gln-free culture medium supplemented with 10% dFBS the following day. Cell culture media was not changed throughout the course of the experiment. At the indicated time points, cells were fixed in 10% formalin and stained with 0.1% crystal violet. Dye was extracted with 10% acetic acid and the relative proliferation was determined by OD at 595 nm.

PDAC cells [2] = test: Clonogenic assay
Description: Cells were plated in 6-well plates at 300 cells per well in 2 mL of media. Cell culture media was not changed throughout the course of the experiment. After 7-10 days, colonies were fixed in 80% methanol and stained with 0.2% crystal violet.

8988T cells = test: ROS quantification (DCFDA assay, flow cytometry)
Description: The DCFDA assay was performed 24 hr after supplementing Gln-free media with either OAA (4 mM) or dimethyl malate (4 mM). Cells were incubated with 5 μM 2′,7′-dichlorodihydrofluorescein diacetate (DCFDA, Invitrogen) for 30 min. Excess DCFDA was removed by washing the cells twice with PBS, and labeled cells were then trypsinized, rinsed, and resuspended in PBS. Oxidation of DCFDA to the highly fluorescent 2′,7′-dichloro-fluorescein (DCF) is proportionate to ROS generation and was analyzed by flow cytometry.

O=C(O)CC(=O)C(=O)O [OAA, oxaloacetate]
rescue of PDAC cell growth upon GOT1 knockdown (PDAC cells [1]): permitted PDAC growth | rescue of clonogenic growth upon GLS knockdown (PDAC cells [2]; 8988T cells expressing shGLS, complete medium with OAA, FIG. 24): permitted PDAC growth | rescue of clonogenic growth upon Gln deprivation (PDAC cells [2]; Gln-free medium supplemented with metabolite, FIG. 5, 22, 26, 29): permitted PDAC growth | ROS levels (DCFDA signal) upon GOT1 knockdown (8988T cells; 8988T cells expressing shGOT1, medium supplementation): significantly restored | ROS levels (DCFDA signal) upon Gln deprivation (8988T cells; Gln-free media supplemented 24 hr, 4 mM): could partially rescue the elevated ROS levels
